Assay results as given in PMC12109253.
No constants are given. Whether binding was seen depends on the method and setting. Binding seen in cells or lysates may run through a third protein. Some entries that bind do so weakly or less than the wild type.

Molecular target: T1, Mrp5 (protein of the small subunit of the mitoribosome, mtSSU) (S. pombe (endogenous in S. pombe cells)) (UniProt Q10234)
T1 sequence: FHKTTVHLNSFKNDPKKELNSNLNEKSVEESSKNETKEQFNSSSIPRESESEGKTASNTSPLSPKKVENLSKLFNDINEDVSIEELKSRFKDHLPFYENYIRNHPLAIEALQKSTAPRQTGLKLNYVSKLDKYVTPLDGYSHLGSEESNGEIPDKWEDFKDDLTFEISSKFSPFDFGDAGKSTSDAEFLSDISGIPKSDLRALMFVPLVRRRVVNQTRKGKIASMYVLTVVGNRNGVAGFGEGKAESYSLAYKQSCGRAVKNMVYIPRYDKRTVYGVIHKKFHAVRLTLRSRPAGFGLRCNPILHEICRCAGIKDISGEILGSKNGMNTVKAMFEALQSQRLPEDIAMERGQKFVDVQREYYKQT
Experiment: co-sedimentation; 10-34% sucrose gradient of digitonin lysates of crude mitochondria (20 mM HEPES pH 7.5, 100 mM KCl, 10 mM MgCl2); wild-type, mti2Δinsertion and Δmti2 strains; 12 fractions, Western blot

B1: Mti3 (S. pombe mitochondrial translation initiation factor 3) (protein, UniProt Q76PC7 40-233)
chain: AKLSNSIKKYFDGRIDESIKYQEIFIRGLENKGKLSKTSLVEALARVRAKPETVLYKVADPNENNKYPICSIISYTELSKLRENQSSRLREAEKSKHKNKTRTRYVLFSWRTDVNDIERKLKSVKDFLQDGNIVEIHVQNKKRSQPVSQEVRDSILSKIQLEIEGLGKDMKPPIVNSHSATFLLQPLVSKSSEL
For B1, the binding was “binds”.
